The values that follow come from patent US20050008573A1 (priority 2001, published 2005).

Series [1] can be described thus: general procedure: Fmoc solid-phase peptide synthesis; Rink-amide MBHA; PyBop/HOBt/DIPEA. Particulars: whole synthesis, scale 54 μmol.
Series [2] is described as follows: general procedure: Fmoc solid-phase peptide synthesis; Rink amide MBHA resin (0.54 mmol/g); PyBop/HOBt/DIPEA. The settings on record: whole synthesis, Analytical RP-HPLC, Phenomenex C18, scale of the general procedure 54 μmol.

In turn, “(Lys(DTPA-GLU)-βAla)4-Lys(DTPA-GLU)-Gly-CCK8” displayed an isolated yield in series [1] of 40%. The “final HPLC purity” value in series [2] is reported as 95%.
